Data from article doi:10.1101/2025.04.27.650851.

Chains of the proteins cited; added tags and fusions are not shown.
UniProt O60264: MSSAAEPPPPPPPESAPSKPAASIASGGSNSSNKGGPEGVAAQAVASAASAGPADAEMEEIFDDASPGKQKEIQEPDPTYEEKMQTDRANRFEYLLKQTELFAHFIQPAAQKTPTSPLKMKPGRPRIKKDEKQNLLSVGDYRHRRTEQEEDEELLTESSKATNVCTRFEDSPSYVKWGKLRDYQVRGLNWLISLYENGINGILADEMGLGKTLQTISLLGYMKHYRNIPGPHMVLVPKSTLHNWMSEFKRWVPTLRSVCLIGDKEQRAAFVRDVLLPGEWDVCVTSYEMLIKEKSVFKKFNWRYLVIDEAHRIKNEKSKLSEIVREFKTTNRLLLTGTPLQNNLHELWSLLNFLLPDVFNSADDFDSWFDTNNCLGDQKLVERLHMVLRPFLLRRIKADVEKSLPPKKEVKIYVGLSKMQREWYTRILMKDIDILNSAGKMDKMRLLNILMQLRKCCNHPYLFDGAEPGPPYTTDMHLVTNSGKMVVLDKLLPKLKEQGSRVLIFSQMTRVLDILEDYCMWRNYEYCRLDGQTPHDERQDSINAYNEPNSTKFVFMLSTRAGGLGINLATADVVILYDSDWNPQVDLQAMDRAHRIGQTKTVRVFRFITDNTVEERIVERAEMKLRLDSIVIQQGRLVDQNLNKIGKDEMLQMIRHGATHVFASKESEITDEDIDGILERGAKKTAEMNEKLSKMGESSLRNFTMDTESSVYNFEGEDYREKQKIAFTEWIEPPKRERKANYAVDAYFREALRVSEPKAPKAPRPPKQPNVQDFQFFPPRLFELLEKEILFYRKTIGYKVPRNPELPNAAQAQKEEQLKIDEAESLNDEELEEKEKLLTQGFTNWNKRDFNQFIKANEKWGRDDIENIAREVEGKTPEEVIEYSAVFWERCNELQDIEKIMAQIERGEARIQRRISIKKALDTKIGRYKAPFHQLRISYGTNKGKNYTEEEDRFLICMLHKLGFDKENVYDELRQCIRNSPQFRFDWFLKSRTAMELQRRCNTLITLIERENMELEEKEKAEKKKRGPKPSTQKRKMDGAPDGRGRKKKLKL

Molecular target: T1, CTCF-TurboID (UniProt P49711)
T1 sequence: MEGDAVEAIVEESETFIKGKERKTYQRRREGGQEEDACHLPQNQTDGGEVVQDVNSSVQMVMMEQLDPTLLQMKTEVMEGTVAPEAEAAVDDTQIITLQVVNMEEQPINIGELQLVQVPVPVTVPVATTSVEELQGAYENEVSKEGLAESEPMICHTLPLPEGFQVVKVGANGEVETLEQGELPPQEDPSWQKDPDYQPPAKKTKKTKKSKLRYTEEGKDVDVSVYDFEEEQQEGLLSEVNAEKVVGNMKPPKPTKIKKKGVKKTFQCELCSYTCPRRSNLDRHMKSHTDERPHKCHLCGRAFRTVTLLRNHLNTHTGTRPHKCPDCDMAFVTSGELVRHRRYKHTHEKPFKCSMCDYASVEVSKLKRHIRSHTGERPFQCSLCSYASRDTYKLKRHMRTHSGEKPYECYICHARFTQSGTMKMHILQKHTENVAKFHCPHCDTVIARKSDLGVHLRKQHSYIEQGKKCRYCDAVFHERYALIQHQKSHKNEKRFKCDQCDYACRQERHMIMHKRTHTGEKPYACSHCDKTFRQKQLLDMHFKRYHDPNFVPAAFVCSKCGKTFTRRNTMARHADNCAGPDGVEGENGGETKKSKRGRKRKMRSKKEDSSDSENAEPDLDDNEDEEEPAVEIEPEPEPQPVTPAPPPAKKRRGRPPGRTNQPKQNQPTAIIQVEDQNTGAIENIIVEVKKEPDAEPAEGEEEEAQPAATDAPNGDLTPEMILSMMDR
Experiment: proximity labelling

SMARCA5 (from UniProt O60264 1-1052)
binding: binds

B1: ZNF280C (protein, UniProt Q8ND82 1-737)
chain: MDDDKPFQPKNISKMAELFMECEEEELEPWQKKVEETQDEDDDELIFVGEISSSKPAISNILNRGHSSSSSKGIKSEPHSPGIPEIFRTASQRCRDPPSNPVAASPRFHLVSKSSQSSVTVENASKPDFTKNSQVGSDNSSILLFDSTQESLPPSQDIPAIFREGMKNTSYVLKHPSTSKVNSVTPKKPKTSEDVPQINPSTSLPLIGSPPVTSSQVMLSKGTNTSSPYDAGADYLRACPKCNVQFNLLDPLKYHMKHCCPDMITKFLGVIVKSERPCDEDKTDSETGKLIMLVNEFYYGRHEGVTEKEPKTYTTFKCFSCSKVLKNNIRFMNHMKHHLELEKQNNESWENHTTCQHCYRQYPTPFQLQCHIESTHTPHEFSTICKICELSFETEHILLQHMKDTHKPGEMPYVCQVCQFRSSTFSDVEAHFRAAHENTKNLLCPFCLKVSKMATPYMNHYMKHQKKGVHRCPKCRLQFLTSKEKAEHKAQHRTFIKPKELEGLPPGAKVTIRASLGPLQSKLPTAPFGCAPGTSFLQVTPPTSQNTTARNPRKSNASRSKTSKLHATTSTASKVNTSKPRGRIAKSKAKPSYKQKRQRNRKNKMSLALKNIRCRRGIHKCIECHSKIKDFASHFSIYIHCSFCKYNTNCNKAFVNHMMSSHSNHPGKRFCIFKKHSGTLRGITLVCLKCDFLADSSGLDRMAKHLSQRKTHTCQVIIENVSKSTSTSEPTTGCSLK
binding: binds

Results are given in words; binding and its absence hold for the method and conditions named. In cells and extracts the contact can be indirect. These calls come from enrichment with a bait or labelling near it, and not all partners need be listed.
